According to paper PMC8464784:
These are yes or no findings as the source states them, for the method shown. In cells and extracts the contact can be indirect. These calls come from enrichment with a bait or labelling near it, and not all partners need be listed. Tags and fused reporters may be left off the sequences shown.

Target: FLAG-P6 (Cauliflower mosaic virus P6 protein) (Cauliflower mosaic virus (strain CM1841))
Experiment: affinity purification with mass spectrometry; anti-FLAG antibody purification from transgenic Arabidopsis 35S: FLAG-P6, control transgenic Arabidopsis 35S: FLAG-EGFP

B1: AtHD2C (histone deacetylase HD2C), endogenous (protein, UniProt Q9LZR5 1-294)
chain: MEFWGVEVKNGKPLHLDPGLDRLVHISQVALGESKNNVTEPIQLYVTVGSDKLLIGTLSHEKFPQLSTEIVLERNFALSHTWKNGSVFFSGYKVDASDPEPEDLIDDQLEAAGFKAAPKSAAKQVNFQLPNEDVKAKQDDDADGSEEDSSDDDDSENSGDEEEEKVTAESDSEEDDSSDDEEDDSSEEETPKKPEEPKKRSAEPNSSKNPASNKKAKFVTPQKTDSKKPHVHVATPHPSKQAGKNSGGGSTGETSKQQQTPKSAGAFGCKSCTRTFTSEMGLQSHTKAKHSAAA
For B1, the binding was “binds”.
